Experimental data from publication PMC7790828.
Results are given in words; binding and its absence hold for the method and conditions named. In cells and extracts the contact can be indirect. Some binding calls cover weakened binding; strength is not graded here.

What was measured:
[1] = target: voltage-gated Na+ channel Nav1.5, endogenous in neonatal rat cardiomyocytes (rat (endogenous in NRCMs)) (UniProt P15389); assay: co-IP; endogenous proteins; neonatal rat cardiomyocytes (NRCMs) and adult mouse heart extracts
[2] = target: Nav1.5, endogenous in mouse heart (mouse (endogenous in heart)) (UniProt Q9JJV9); assay: as above

B1: human leukocyte antigen F-associated transcript 10 (FAT10), endogenous in neonatal rat cardiomyocytes (protein, UniProt Q921A3 1-161)
chain: MASCVCVVRSEQWPLMTFDTTMSDKVKKINEHIRSQTKVSVQDQILLLDSKILKPHRALSSYGIDKENTIHLTLKVVKPSDEELPLSLVESGDEGQRHLLRVRRSSSVAQVKEMIENVTAVPPKKQIVNCNGKRLEDGKIMADYNIKSGSLLFLTAHCIGG
- binding [1]: binds

B2: FAT10, endogenous in mouse heart (protein, UniProt P63072 1-162)
chain: MASVRTCVVRSDQWRLMTFETTENDKVKKINEHIRSQTKVSVQDQILLLDSKILKPHRKLSSYGIDKETTIHLTLKVVKPSDEELPLFLVESKNEGQRHLLRVRRSSSVAQVKEMIESVTSVIPKKQVVNCNGKKLEDGKIMADYNIKSGSLLFLTTHCTGG
- binding [2]: binds
